Results are given in words; binding and its absence hold for the method and conditions named. Some results given as binding are weak or reduced against the parent protein; the word gives no strength.

The target in the test is SARS-CoV-2 S2 subunit antigen (SARS-CoV-2) (UniProt P0DTC2). Kind of test: multiplex bead assay.

B1: COV_2169 (antibody, V domains shown)
VH: EVQLVESGGGVVQPGRSLRLSCAASGFTFSRYAMHWVRQAPGKGLEWVAVISYEGSNKYYADSVKGRFTISRNNSNNTLSLQMNSLRPDDTAVYYCVRSGGHYFDAFDLWGQGTMVTVSS
VL: EIVLTQSPGTLSLSPGERATLSCRASQSVSRNYVAWYQQKPGQAPRLLIYGASSRATGIPDRFSGSGSGTDFTLTISRLEPEDFALYYCQQYGSSYTFGQGTKLEIKR
Consider B1, for which the binding result was “binds”.

B2: COV_3103 (antibody, V domains shown)
VH: EVQLVESGGGLVQPGRSLRLSCVASGFIVENFAMHWVRQAPGKGLEWVSGITWNSASTGYVESVKGRFSISRDNGENSMFLEMNSLRPDDTALYYCVKATGSYWGFPMDVWGQGTTVTVSS
VL: EIVLTQSPGTLSLSPGEGGTLSCRASQSVRSNYLAWYQRKPGQAPRLLIYATSNRATGIPDRFSGSGSGTDFTLTISRLEPEDFAVYFCQHYGDSPYTFGQGTKLEIKR
For B2, the binding result is listed as “binds”.

Source of the values: patent US20240101645A1.
